Source: publication PMC5069480
These are yes or no findings as the source states them, for the method shown. In cells and extracts the contact can be indirect. Some entries that bind do so weakly or less than the wild type. For some assays here: Tags and fused reporters may be left off the sequences shown.

Protein sequences, listed by entry. Tags and fused reporters are not part of them. Residues count along the entry.
UniProt P19491, residues 22-883: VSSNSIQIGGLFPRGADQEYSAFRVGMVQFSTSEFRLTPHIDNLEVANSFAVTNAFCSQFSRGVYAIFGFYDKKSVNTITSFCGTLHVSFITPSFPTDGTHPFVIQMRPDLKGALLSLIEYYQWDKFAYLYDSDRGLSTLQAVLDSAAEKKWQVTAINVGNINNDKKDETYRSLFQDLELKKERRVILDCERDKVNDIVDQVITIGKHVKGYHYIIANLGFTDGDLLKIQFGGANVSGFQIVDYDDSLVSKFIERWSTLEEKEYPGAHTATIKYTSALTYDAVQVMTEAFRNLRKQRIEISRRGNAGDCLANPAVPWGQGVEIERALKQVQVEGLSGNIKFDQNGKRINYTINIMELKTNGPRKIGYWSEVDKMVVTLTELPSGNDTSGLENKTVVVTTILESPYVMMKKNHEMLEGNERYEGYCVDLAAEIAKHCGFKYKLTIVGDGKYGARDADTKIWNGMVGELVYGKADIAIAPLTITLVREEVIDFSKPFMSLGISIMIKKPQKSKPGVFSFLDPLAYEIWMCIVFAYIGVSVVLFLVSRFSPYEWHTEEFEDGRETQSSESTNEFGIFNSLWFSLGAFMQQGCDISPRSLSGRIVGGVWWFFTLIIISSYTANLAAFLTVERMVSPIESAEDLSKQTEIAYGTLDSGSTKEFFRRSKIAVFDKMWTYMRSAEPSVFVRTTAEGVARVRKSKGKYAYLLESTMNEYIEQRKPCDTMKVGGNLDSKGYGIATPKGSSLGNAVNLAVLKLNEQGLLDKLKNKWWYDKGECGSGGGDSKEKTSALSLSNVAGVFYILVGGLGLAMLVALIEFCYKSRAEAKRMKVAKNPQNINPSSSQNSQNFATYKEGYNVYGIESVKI
UniProt P97836: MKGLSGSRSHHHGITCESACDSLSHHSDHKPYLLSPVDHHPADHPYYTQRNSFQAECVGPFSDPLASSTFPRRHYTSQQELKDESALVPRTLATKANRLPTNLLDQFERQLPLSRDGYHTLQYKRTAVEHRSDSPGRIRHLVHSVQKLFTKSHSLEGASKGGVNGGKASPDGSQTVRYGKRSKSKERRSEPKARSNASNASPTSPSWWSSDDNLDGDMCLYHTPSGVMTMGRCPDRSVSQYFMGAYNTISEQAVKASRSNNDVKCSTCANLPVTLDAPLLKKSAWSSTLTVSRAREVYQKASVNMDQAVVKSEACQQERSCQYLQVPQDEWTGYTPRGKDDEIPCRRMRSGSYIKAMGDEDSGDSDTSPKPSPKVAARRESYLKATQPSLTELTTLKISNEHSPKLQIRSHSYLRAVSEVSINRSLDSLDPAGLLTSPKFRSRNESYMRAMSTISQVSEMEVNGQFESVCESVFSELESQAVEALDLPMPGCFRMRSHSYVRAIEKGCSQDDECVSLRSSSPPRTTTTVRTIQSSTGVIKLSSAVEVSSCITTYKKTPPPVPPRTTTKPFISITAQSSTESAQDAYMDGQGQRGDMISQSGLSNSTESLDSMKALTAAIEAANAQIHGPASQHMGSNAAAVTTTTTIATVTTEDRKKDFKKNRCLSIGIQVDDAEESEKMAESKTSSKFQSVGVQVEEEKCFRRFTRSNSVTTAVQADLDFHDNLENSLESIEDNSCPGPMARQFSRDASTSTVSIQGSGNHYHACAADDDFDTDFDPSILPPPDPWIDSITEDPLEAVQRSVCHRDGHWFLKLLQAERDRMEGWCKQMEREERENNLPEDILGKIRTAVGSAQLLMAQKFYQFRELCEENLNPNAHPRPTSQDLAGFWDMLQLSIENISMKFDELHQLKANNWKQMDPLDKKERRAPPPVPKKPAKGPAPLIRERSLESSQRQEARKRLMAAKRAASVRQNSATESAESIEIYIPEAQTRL

How the values were obtained:
[1] = molecular target: T1, endogenous Stargazin/TARPγ2 from rat brain crude synaptosomes (rat (endogenous in rat brain)) (UniProt Q71RJ2); experiment: co-IP; endogenous proteins from adult rat brain crude synaptosomes in 50 mM Tris pH 7.4, 100 mM NaCl, 1 mM EDTA, 1% Triton-X; IP with mouse anti-Stargazin/TARPγ2 or rabbit anti-MPP2 and protein-G-agarose, or chicken anti-SynCAM-Biotin and streptavidin Dynabeads; IgG or IgY controls; western blot
T1 sequence: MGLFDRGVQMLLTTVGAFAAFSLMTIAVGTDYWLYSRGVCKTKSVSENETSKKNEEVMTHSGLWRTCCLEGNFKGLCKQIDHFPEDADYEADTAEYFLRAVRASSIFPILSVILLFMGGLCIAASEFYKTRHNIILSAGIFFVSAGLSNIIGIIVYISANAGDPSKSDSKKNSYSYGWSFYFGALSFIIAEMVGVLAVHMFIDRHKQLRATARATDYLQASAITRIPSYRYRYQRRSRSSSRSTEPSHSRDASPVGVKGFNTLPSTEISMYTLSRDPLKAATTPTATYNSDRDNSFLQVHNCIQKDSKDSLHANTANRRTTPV

[2] = molecular target: T2, MYC-tagged full-length mouse MPP2 (MAGUK p55 subfamily member 2) (mouse) (UniProt Q9WV34); experiment: co-IP; tagged recombinant proteins coexpressed in COS7 cells; lysis in 50 mM Tris pH 7.4, 100 mM NaCl, 1 mM EDTA, 1% Triton-X or 0.1% NP-40; IP with anti-MYC, anti-HA or anti-PSD-95 antibody (mouse IgG as control), protein-G-agarose, 4 °C; western blot
T2 sequence: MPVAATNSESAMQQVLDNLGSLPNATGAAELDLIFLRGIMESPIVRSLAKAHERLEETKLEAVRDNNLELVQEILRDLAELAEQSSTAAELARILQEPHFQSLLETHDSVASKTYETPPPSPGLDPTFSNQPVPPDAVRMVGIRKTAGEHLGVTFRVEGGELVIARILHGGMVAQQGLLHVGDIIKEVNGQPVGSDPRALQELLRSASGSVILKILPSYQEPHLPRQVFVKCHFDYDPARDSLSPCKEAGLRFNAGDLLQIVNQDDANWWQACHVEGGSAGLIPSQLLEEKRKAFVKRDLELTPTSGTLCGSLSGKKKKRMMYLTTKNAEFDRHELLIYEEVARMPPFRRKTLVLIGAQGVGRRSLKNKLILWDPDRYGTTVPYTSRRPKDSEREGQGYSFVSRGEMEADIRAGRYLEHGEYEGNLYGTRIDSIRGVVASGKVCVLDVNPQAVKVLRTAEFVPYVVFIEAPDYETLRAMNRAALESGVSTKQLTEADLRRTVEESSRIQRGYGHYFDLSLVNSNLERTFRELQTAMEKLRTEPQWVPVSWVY

| binding [1] | binding [2] | Substance |
| --- | --- | --- |
| binds | – | endogenous AMPA receptor subunit GluA2 from rat brain crude synaptosomes (from UniProt P19491 22-883) |
| – | binds | FLAG-tagged recombinant GKAP (guanylate kinase associated protein) (from UniProt P97836 1-992) |
